Experimental data as given in PMC3903547.
No constants are given. Whether binding was seen depends on the method and setting. Binding seen in cells or lysates may run through a third protein. Binding can be weak; no strength is given.

Target: Cameo1 in pBiFC-VC155 (Bombyx mori) (UniProt D2KXB2)
Test: split reporter; Cameo1 or Cameo2 in pBiFC-VC155 and CBP or cbp in pBiFC-VN173, co-transfected into HEK293 cells; cells fixed 24 h after transfection; yellow fluorescence seen by fluorescence microscopy

binding: binds
B1: Carotenoid-binding protein (CBP) in pBiFC-VN173 (protein, UniProt Q8MYA9 2-297)
chain: ADSTSKSAPKINEETAERQLNELINVDSHDEYENRLSRISSALANWMKSVFNMDTTTKEEFDPVWLSIDEYKSQANESMANAWRIITLPNWTVEKRGTVRGDVVESRKVEGFGKVYRFTGVVNCPARFLYEEFKNNLTKLPEWNPTILKCEIIKEIGDGVDLSYQVTAGGGRGIITPRDFVILRRTALLSREGRVVDDNPHGYISSGVSVQVPGYPPLKEMVRGHNKVGCWYLQPRTVQTPGGKIEDQALFQWLMCCDLKGKIPQFVLDVAFATVMLDYIVHVRKFVAEAKARAEI
